Measured values reported in the supplement of paper PMC8497498.
The other results are listed elsewhere or left out. The data scatter; read single values as rough.

Experiments:
Settings in all cases: 10 µM
[1] = tested on: Plasmodium vivax liver stage (primary human hepatocyte culture); test: hypnozoite quantity inhibition (% inhibition); higher = more active against hypnozoites
[2] = tested on: Plasmodium vivax liver stage (primary human hepatocyte culture); test: schizont net growth area inhibition (% inhibition); higher = more active against liver schizonts
[3] = tested on: primary human hepatocytes; test: hepatic nuclei reduction relative to DMSO (100 - % of negative control); higher = more toxic to hepatocytes
[4] = assay mode: Prophylactic (treated before or shortly after infection), fixed day 6 post-infection
[5] = assay mode: Radical Cure (treated from day 5 post-infection for 3 days), fixed day 8 post-infection

Row | Structure (SMILES) | hypnozoite quantity inhibition [1, 4] | hypnozoite quantity inhibition [1, 5] | schizont net growth area inhibition [2, 4] | schizont net growth area inhibition [2, 5] | hepatic nuclei reduction [3, 4] | hepatic nuclei reduction [3, 5]
1 | N=C(N)c1ccc(-c2ccc(-c3ccc(C(=N)N)cc3)o2)cc1 | 6 | 15 | -37.3 | 33.3 | -36% | -37%
2 | Cc1cccc(NC(=O)c2cc(S(=O)(=O)N(C)c3ccc(F)cc3)ccc2Cl)n1 | -26 | -36 | 41.8 | -45.3 | -7% | 0%
3 | C[C@]1(O)C[C@@H](c2nc(-c3ccc4ccc(-c5ccccc5)nc4c3)c3c(N)nccn32)C1 | -2 | -36 | 19.3 | -6.7 | -11% | -9%
4 | CCN(CC)CCNc1ccnc2cc3ccccc3cc12 | -2.8 | 51.9 | -295 | 42.5 | -4% | -3%
5 | CCN(CC)CCCN1CCN(C(=O)c2cccc(-c3noc(C(F)(F)F)n3)c2)CC1 | 1 | -18 | 13.5 | -89.6 | 0% | -6%
6 | COC(=O)c1c(NC(=O)c2cc3ccccc3oc2=O)sc2c1CCN(Cc1ccccc1)C2 | 21 | 16 | 43.5 | -61.7 | -3% | -6%
7 | CCOC(=O)c1c(NC(=O)c2ccccc2)sc2c(O)c(CN(CC)CC)ccc12 | -4.3 | 1.5 | -162 | 26.5 | -1% | -12%
8 | CC(=O)Nc1ccc(-c2noc(CC3CCCN(Cc4cccc(F)c4C)C3)n2)cc1 (stereo unspecified) | 13 | -4 | -15.5 | -27.5 | -1% | 1%
9 | Cc1cc(NC(=O)c2ccc(Oc3ccc(Cl)cc3O)o2)no1 | 46 | -25 | -11.6 | -100 | 2% | -6%
10 | C[C@H]1COc2c(N3CCN(C)CC3)c(F)cc3c(=O)c(C(=O)O)cn1c23 | 23 | -39 | -46.5 | -40.4 | -8% | -4%
11 | O=C(CCc1ccccc1)c1ccccc1OCC(O)CN1CCCCC1 (stereo unspecified) | 0 | 42.8 | 20.8 | -23.6 | 2% | -5%
12 | CCN(CC)CCn1c(=N)n(CC(O)c2ccc(Cl)c(Cl)c2)c2ccccc21 (stereo unspecified) | -22.7 | 26.5 | 18.9 | 36.9 | -4% | -3%
13 | CN1CCC(c2cc(-c3ccncc3)c(-c3ccc(F)cc3)[nH]2)CC1 | 48 | -4 | 18.6 | 14 | 17% | 8%
14 | O=C(NCCN1CCCC1)c1cc(NCCN2CCOCC2)nc2ccc(Cl)cc12 | 82 | 19 | 109 | 71.8 | -6% | -5%
15 | CCOC(=O)C1=C(c2ccccc2)N=c2sc(=Cc3cc(C)n(-c4ccc(F)cc4)c3C)c(=O)n2C1c1cccc(OC)c1OC (stereo unspecified) | 20.9 | 10.1 | -67 | -115 | 4% | 4%
16 | CC(=O)Nc1ccc(NC(=O)c2cc(-c3cc(Cl)ccc3O)[nH]n2)cc1 | -28 | 9 | -6.2 | -34.8 | 1% | 4%
17 | O=C(Nc1cccc(-c2ccc(NCCCN3CCCC3)nc2)c1)c1ccccc1 | 21 | -18 | 57.4 | -48.2 | -2% | -9%
18 | O=C(CSc1ccc2nnc(-c3cccc(F)c3)n2n1)Nc1ccc2c(c1)OCO2 | -38.5 | 29 | 12.1 | 40.8 | -11% | 1%
19 | COc1ccccc1CNC(=O)CCn1c(=O)[nH]c2ccsc2c1=O | -7 | -74.3 | 86.9 | 29.1 | -1% | -7%
20 | CCOc1ccccc1NC(=O)CN1CCN(C(=O)c2ccco2)CC1 | 12.6 | 23.7 | -1.7 | 11.6 | 7% | -3%
21 | O=C(NCCN1CCCC1)c1cc(-c2ccc(CN3CCOCC3)cc2)nc2ccc(F)cc12 | 84 | 12 | 102 | 83.6 | 0% | -3%
22 | Cc1ccc(NC(=O)c2nc[nH]c2C(=O)Nc2nc3ccccc3[nH]2)c(C)c1 | -41 | -41 | 61 | -122 | -8% | -8%
23 | CC(C)(C)c1ccc(C(=O)Nc2nc3ccccc3s2)cc1 | -18.3 | 7.4 | 15.4 | -116 | 2% | -6%
24 | CCOC(=O)c1cnc2c(C)cccc2c1Nc1ccc(C(C)=O)cc1 | -0.6 | 47.3 | 44.2 | 45.8 | -6% | 4%
25 | O=C1c2ccccc2-c2nnc(-c3ccc(Br)cc3)cc21 | -5.8 | 63.4 | 6 | 36.2 | -7% | -2%
26 | COc1cc(C2=NCCN2)ccc1-c1cn(-c2cccc(C3=NCCN3)c2)nn1 | -44 | -72 | -7.7 | -97 | 11% | -1%

Retrieved by structure from above (two):
Row | Structure (SMILES) | hypnozoite quantity inhibition [1, 4] | hypnozoite quantity inhibition [1, 5] | schizont net growth area inhibition [2, 4] | schizont net growth area inhibition [2, 5] | hepatic nuclei reduction [3, 4] | hepatic nuclei reduction [3, 5]
25 | O=C1c2ccccc2-c2nnc(-c3ccc(Br)cc3)cc21 | -5.8 | 63.4 | 6 | 36.2 | -7% | -2%
15 | CCOC(=O)C1=C(c2ccccc2)N=c2sc(=Cc3cc(C)n(-c4ccc(F)cc4)c3C)c(=O)n2C1c1cccc(OC)c1OC (stereo unspecified) | 20.9 | 10.1 | -67 | -115 | 4% | 4%
